Source: patent US8974836B2, “Angiogenesis regulating composition and method for regulating angiogenesis” (Air Water, Inc., priority 2009, dated 2015)

Experiments:
[1] = tested on: model mice of oxygen-induced retinal angiogenesis; experiment: Exemplary experiment 3: regulation of retinal angiogenesis, administration from start of angiogenesis (P12); assay type: in vivo, C57BL/6J mouse; conditions: 15 μmol/kg hypodermically once per day P12-P16, average
Experimental: For the model mice of oxygen-induced retinal angiogenesis, retinal angiogenesis is induced by providing 75% oxygen followed by breeding in room air during P12-P17.
Sodium nitrate or sodium nitrite as a test compound was dissolved in physiological saline for injection to prepare a test compound injection of […].
Preparation of the model mice of oxygen-induced retinal angiogenesis, fluorescent imaging of retinal vessels and a retinal flat-mount were operated according to exemplary experiment 1. However sodium nitrate or sodium nitrite was injected to a cervical region hypodermically once per day in amount of 15 μmol/kg for […] from the 12th day (P12) to the 16th day (P16) after birth. In addition, physiological saline as controls was similarly injected hypodermically instead of test compound for the same period of time.
(§1) Areal ratio of retinal avascular area was calculated pursuant to exemplary experiment 1.

[2] = tested on: model mice of oxygen-induced retinal angiogenesis; experiment: Exemplary experiment 4: nitrite versus general-purpose nitrogen monoxide donor drugs, retinal avascular area; assay type: in vivo, C57BL/6J mouse
Experimental: Preparation of the model mice of oxygen-induced retinal angiogenesis, fluorescent imaging of retinal vessels and a retinal flat-mount were operated according to exemplary experiment 1.
as §1

[3] = tested on: model mice of oxygen-induced retinal angiogenesis
[4] = 75 μmol/kg hypodermically once per day P7-P16, evaluated P17, average

Compound | value of total retinal area [1] | value of total retinal area ([2]; 15 μmol/kg hypodermically once per day P7-P16, average) | value of total retinal area ([3]; 15 μmol/kg hypodermically once per day P7-P16, evaluated P17, average) | value of total retinal area [3, 4] | value of total retinal area ([2]; 20 μmol/kg hypodermically once per day P7-P16, average)
O=NO [sodium nitrite] | 6688088.68 μm^2 | 6483871.44 μm^2 | 6483871.44 μm^2 | 5711629.25 μm^2 | –
O=[N+]([O-])OCC(CO[N+](=O)[O-])O[N+](=O)[O-] [NTG, nitroglycerin] | – | – | – | – | 6817842.90 μm^2
O=[N+]([O-])[O-].[Na+] [sodium nitrate] | 5782966.84 μm^2 | – | – | 6629478.87 μm^2 | –

Like-named read-outs stand apart in the source and are kept apart here.
